For the series the following is noted: TSK-Gel HA 1000 HPLC column; linear gradient 10 mM to 500 mM sodium phosphate, 0.15 N NaCl, pH 6.8; corrected using two reference compounds. As for the experimental part:
Hydroxyapatite is the principal mineral component of bone. Hydroxyapatite adsorption chromatography is used as an assay to evaluate the bone-targeting potential of both individual bone-targeting moieties (“monomers”) and of pharmaceuticals incorporating bone-targeting groups.
This K value is corrected using two reference compounds to correct from inter-column and inter-system variation to obtain a K′ value.
Reference Compounds: K′ values were determined for known bone targeted compounds, the bisphosphonate, alendronate and tetracycline.

Structures are written as SMILES.

Turning to `NCCCC(O)(P(=O)(O)O)P(=O)(O)O` [Alendronate, alendronate], the “K′ value (corrected hydroxyapatite retention, K=(retention time-void time)/void)” value is given as 3.7.
